# Test results taken from PubChem BioAssay AID504834 (National Center for Advancing Translational Sciences (NCATS), 2011).
# Hit rate of the full screen: of about 320,000 compounds, about 22,000 (6.9%) were called active. The shares of active, inactive and inconclusive entries below differ from those in the screen. Calls come from the whole dose curve; as a rule, active = well fitted inhibition curve with a large enough effect; inconclusive = small, poorly fitted or top-dose-only effect, or another doubt; inactive = no such curve, though single readings can be large or run the other way. A potency beside an inconclusive call is a rough fit, not a confirmed value.
# Test: Primary qHTS for delayed death inhibitors of the malarial parasite plastid, 96 hour incubation
# Details: P. falciparum luciferase reporter growth; series mostly up to 28.7 µM
# Method in brief: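 Cell-based qHTS: luciferase-tagged P. falciparum in erythrocytes (2% hematocrit, 0.05% parasitemia final) incubated with compounds for 96 hours, 37 C, 5% CO2; luciferase detection reagent then added and luminescence measured.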
# Potency is the fitted concentration of half-maximal effect.
row,Structure (SMILES),Potency
1,COc1cccc(NC(=S)NC(=O)c2cccnc2)c1,inactive
2,CC1=CC(=O)O[C@@H]1[C@@]1(C)C[C@H]2OC(=O)C[C@H]3[C@@H](C)C(=O)C(O)=C1[C@@]23CO,active: 14.7 µM
3,Cc1ccc(CSCC(=O)N(C)CC(=O)Nc2c(Cl)cccc2Cl)cc1,"inconclusive: 3.7 µM [inhibitor, full curve]"
4,CCOc1ccc(CCNC(=O)Cn2nc(C)n3cccc3c2=O)cc1OCC,inactive
5,Cc1ccc(C(=O)CSc2nsc(C)c2C#N)cc1,inactive
6,CCn1c(=O)[nH]c(=O)c2c(N)c(C(=O)c3cc(F)ccc3F)sc21,"inconclusive: 13.1 µM [inhibitor, single point]"
7,Cc1cc(Oc2ccccc2)nc(OCC#N)n1,inactive
8,CCN(CC(=O)Nc1ccccc1C(F)(F)F)C(=O)CCSc1ccc(F)cc1,inactive
9,CCCCNC(=O)c1cn(CC)c2cc(N3CCN(C)CC3)c(F)cc2c1=O,"inconclusive: 13.1 µM [inhibitor, partial curve, poor fit]"
10,O=C(O)c1ccccc1Nc1ccc2nonc2c1[N+](=O)[O-],inactive
11,COc1ccc(NS(=O)(=O)c2ccc(-c3cnc(C4CC4)o3)cc2)cc1OC,"inconclusive: 18.5 µM [inhibitor, single point]"
12,Cn1cc(/C=C2\SC(=S)N(N3CCOCC3)C2=O)c2ccccc21,inactive
13,COC(=O)C1C2C=CC3(CN(Cc4ccco4)C(=O)C13)O2 (centres undefined),"inconclusive: 1.47 µM [inhibitor, partial curve, poor fit]"
14,CCOc1ccc(-n2c(=O)c3sccc3n(CC(=O)NCCc3ccc(OC)c(OC)c3)c2=O)cc1,inactive
15,CCCCNC(=S)NC(=O)c1ccc(Cl)cc1Cl,"inconclusive: 18.5 µM [inhibitor, single point]"
16,Cc1oc2c(c1C(=O)NCc1ccccc1)CCCC2,inactive
17,O=C(CSc1nnc(CNC(=O)c2cccs2)o1)NCC1CCCO1 (centres undefined),"inconclusive: 16.5 µM [inhibitor, single point]"
18,COc1ccc(-c2ccc(SCC(=O)NCc3ccco3)nn2)cc1,inactive
19,Cc1ccc(CNC(=O)CCC(=O)Nc2nnc(C3CCCCC3)s2)cc1,"inconclusive: 3.7 µM [inhibitor, single point]"
20,CCN(CC)CCNc1ncnc2c1sc1nc(N3CCOCC3)c3c(c12)CC(C)(C)SC3,active: 5.22 µM
21,Cc1cccc(OCC(=O)NCC(=O)N/N=C/c2ccc(N(C)C)cc2)c1,active: 7.38 µM
22,COC(=O)c1cn(CCC#N)nc1-c1ccc2ccccc2c1,"inconclusive: 16.5 µM [inhibitor, single point]"
23,Cc1ccc(SCCc2ccc(C)nc2)cc1,inactive
24,CC(=O)N1c2ccc(F)c(F)c2C[C@H]1C,inactive
25,Cc1ccc(N(CN2C(=O)c3ccccc3C2=O)C(=O)c2ccc([N+](=O)[O-])cc2[N+](=O)[O-])cc1,active: 3.7 µM

# Quoted from the listing.
# `O=C(CSc1nnc(CNC(=O)c2cccs2)o1)NCC1CCCO1` (centres undefined) – Potency: inconclusive: 16.5 µM [inhibitor, single point]
# `COc1ccc(-c2ccc(SCC(=O)NCc3ccco3)nn2)cc1` – Potency: inactive
# `Cc1oc2c(c1C(=O)NCc1ccccc1)CCCC2` – Potency: inactive

# (more compounds)

row,Structure (SMILES),Potency
1,COc1ccc(-c2c(C)nc3c(-c4ccsc4)cnn3c2N)cc1,inactive
2,COc1ccc(CN(C)C(C)C(=O)Nc2ccc(S(=O)(=O)N3CCCC3)cc2)c(OC)c1OC (centres undefined),active: 4.15 µM
3,O=C(NCc1cccs1)C1CCC(=O)N1C1CCCCC1 (centres undefined),"inconclusive: 1.47 µM [inhibitor, partial curve, poor fit]"
4,CCOc1cc(N2CCOCC2)c(OCC)cc1NC(=O)c1ccco1,"inconclusive: 2.33 µM [inhibitor, full curve, poor fit]"
5,COc1cccc(NC(=O)Cn2c(=O)c3c(ncn3Cc3ccccc3)n(Cc3ccccc3)c2=O)c1,active: 0.828 µM
6,CCCc1cc(=O)oc2c3c(c4c(c12)OC(C)(C)C=C4)OC(C)C(C)C3O (centres undefined),active: 10.4 µM
7,COCCN(CC(=O)NC1CCCCC1)C(=O)/C=C/C(=O)c1ccc(OC)cc1O,"inconclusive: 11.7 µM [inhibitor, single point]"
8,CCOc1ccc(NC(=O)N2CCC(c3nc4ccccc4[nH]3)CC2)cc1,"inconclusive: 0.0329 µM [inhibitor, full curve, poor fit]"
9,COc1cccc(C2C(C(=O)c3sc(C)nc3C)=C(O)C(=O)N2CCN(C)C)c1OC (centres undefined),inactive
10,CN(C(=O)c1ccc(-c2nn(C)c(=O)c3ccccc23)cc1)c1ccccc1,"inconclusive: 18.5 µM [inhibitor, single point]"
11,CCS(=O)(=O)c1ccc2oc(SCC(=O)c3c(N)n(C4CC4)c(=O)[nH]c3=O)nc2c1,"inconclusive: 1.47 µM [inhibitor, full curve, poor fit]"
12,CCOC(=O)c1ccc(NC(=O)Nc2ccc(S(N)(=O)=O)cc2)cc1,inactive
13,COc1cccc(CN(C)C(=O)c2cccc(S(=O)(=O)N3CCN(Cc4ccccc4)CC3)c2)c1OC,"inconclusive: 18.5 µM [inhibitor, single point]"
14,Cc1cccc(OCC(=O)Nc2ccccc2F)c1,inactive
15,CCCn1c(=O)c2ccccc2n2c(SCc3nc4ccccc4s3)nnc12,active: 10.4 µM
16,COCCCNC(=O)Cn1cc(/C=C(\C#N)C(=O)NC2CCCC2)c2ccccc21,inactive
17,CCc1cccc(CC)c1NC(=O)CN(CC(=O)O)CC(=O)O,"inconclusive: 2.03 µM [inhibitor, partial curve, poor fit]"
18,CC(C)CC1NC(=O)N(CC(=O)N2CCN(S(=O)(=O)c3ccc4ccccc4c3)CC2)C1=O (centres undefined),"inconclusive: 18.5 µM [inhibitor, partial curve, poor fit]"
19,COCCn1c(SCC(=O)Nc2cc(Cl)ccc2OC)nc2c(c1=O)SC(C)C2 (centres undefined),active: 3.7 µM
20,CCC(C)Sc1nnc(CSc2nc(C)cc(C)n2)n1C (centres undefined),active: 13.1 µM
21,Cc1cc(=O)oc2c3c(cc(OCC(=O)NC4CC4)c12)OC(C)(C)CC3,active: 14.7 µM
22,Nc1c(C(=O)CSc2ncccn2)c(=O)[nH]c(=O)n1C1CC1,inactive
23,C[N+]1(C)[C@@H]2CC(OC(=O)C(O)(c3cccs3)c3cccs3)C[C@H]1[C@@H]1O[C@@H]12 (some centres undefined),inactive
24,Cc1cccc(NC(=O)CN2C(=O)S/C(=C\c3ccccn3)C2=O)c1,active: 4.15 µM
